Measurements reported in the supplement of paper PMC4604168 (melanoma cell lines).
The other results are listed elsewhere or left out. Single values are uncertain, as repeats are few or missing.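 Cells were imaged in 1,536-well plates, and nuclei stained with an antibody against cleaved PARP were counted against all DNA-stained nuclei to give the apoptosis fraction. Screening doses were chosen to leave most cells alive, and resting and induced cleaved-PARP levels differ strongly between cell lines.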

test system: COLO792; assay: cleaved PARP positive nuclei fraction relative to DMSO control; melanoma cells; higher = more apoptosis; details: library dose: low library concentration; 72 h

Row | Structure (SMILES) | cleaved PARP positive nuclei fraction [%]
1 | CN(NC(=O)CC(=O)NN(C)C(=S)c1ccccc1)C(=S)c1ccccc1 + N#Cc1c(O)c2c(-c3ccc(-c4ccccc4O)cc3)csc2[nH]c1=O [A769662] (first compound 0.006 µM, partner dose 2 µM) | 96.1
2 | O=C(O)c1ccc(-c2c[nH]c3ncc(-c4ccccc4)cc23)cc1C1CCCC1 + CN(NC(=O)CC(=O)NN(C)C(=S)c1ccccc1)C(=S)c1ccccc1 [STA4783] (first compound 0.16 µM, partner dose 0.006 µM) | 136
3 | CN(C)S(=O)(=O)c1ccc2c(c1)/C(=C/c1cc3c([nH]1)CCCC3)C(=O)N2 + CC(C)CCN1c2nc(Nc3cc(F)c(O)c(F)c3)ncc2N(C)C(=O)C1C [BID1870] (first compound 0.4 µM, partner dose 0.2 µM) | 110
4 | CN(NC(=O)CC(=O)NN(C)C(=S)c1ccccc1)C(=S)c1ccccc1 + COc1cc2c(Oc3ccc4[nH]c(C)cc4c3F)ncnc2cc1OCCCN1CCCC1 [cediranib] (first compound 0.006 µM, partner dose 0.4 µM) | 176
5 | COC(=O)c1sccc1S(=O)(=O)Nc1ccc(Nc2ccccc2)cc1OC + COc1ccc(-c2ccc3c(N4CCOCC4)nc(N4C[C@@H](C)O[C@@H](C)C4)nc3n2)cc1CO [KU0063794] (first compound 1 µM, partner dose 0.02 µM) | 101
6 | COc1ccc2c(c1)CCC1C2CCC2(C)C(NCCCCCCN3C(=O)C=CC3=O)CCC12 (stereo unspecified) + COc1cc(N2CCC(N3CCN(C)CC3)CC2)ccc1Nc1ncc(Cl)c(Nc2ccccc2S(=O)(=O)C(C)C)n1 [NVP-TAE684] (first compound 0.4 µM, partner dose 0.08 µM) | 123
7 | O=C(O)C(=O)Nc1sc2c(c1C(=O)O)CCNC2 + COc1cc(N2CCC(N3CCN(C)CC3)CC2)ccc1Nc1ncc(Cl)c(Nc2ccccc2S(=O)(=O)C(C)C)n1 [NVP-TAE684] (first compound 1.66667 µM, partner dose 0.08 µM) | 84.7
8 | CCCCCCCCCCCC1=C(O)C(=O)C=C(O)C1=O [Embelin] + O=c1cc(-c2cccc3c2Sc2ccccc2S3)oc(N2CCOCC2)c1 [KU55933] (first compound 1.2 µM, partner dose 1 µM) | 67.8
9 | COc1cc2ncnc(Nc3ccc(Oc4ccccc4)cc3)c2cc1OC + CC(C)CCN1c2nc(Nc3cc(F)c(O)c(F)c3)ncc2N(C)C(=O)C1C [BID1870] (first compound 2 µM, partner dose 0.2 µM) | 170
10 | N#Cc1c(O)c2c(-c3ccc(-c4ccccc4O)cc3)csc2[nH]c1=O + COC(=O)c1sccc1S(=O)(=O)Nc1ccc(Nc2ccccc2)cc1OC [GSK0660] (first compound 2 µM, partner dose 1 µM) | 79.9
11 | NCC(=O)Nc1ccc(-n2nc(C(F)(F)F)cc2-c2ccc3c(ccc4ccccc43)c2)cc1 + CN(NC(=O)CC(=O)NN(C)C(=S)c1ccccc1)C(=S)c1ccccc1 [STA4783] (first compound 1 µM, partner dose 0.006 µM) | 116
12 | NCC(=O)Nc1ccc(-n2nc(C(F)(F)F)cc2-c2ccc3c(ccc4ccccc43)c2)cc1 + COc1cc(N2CCC(N3CCN(C)CC3)CC2)ccc1Nc1ncc(Cl)c(Nc2ccccc2S(=O)(=O)C(C)C)n1 [NVP-TAE684] (first compound 1 µM, partner dose 0.08 µM) | 78.7
13 | CCc1ccc(CCOc2ccc(CC3SC(=O)NC3=O)cc2)nc1 (stereo unspecified) [pioglitazone] + O=C(O)C(=O)Nc1sc2c(c1C(=O)O)CCNC2 [TCS401] (first compound 2 µM, partner dose 1.66667 µM) | 116
14 | CCN(CC)CCCCNc1ncc2cc(-c3cc(OC)cc(OC)c3)c(NC(=O)NC(C)(C)C)nc2n1 + Oc1cc(-c2nc(-c3ccccc3)[nH]c2-c2ccncc2)ccc1Cl [L779450] (first compound 0.1 µM, partner dose 0.2 µM) | 134
15 | O=C1NC(=O)/C(=C/c2ccc(-c3ccc(F)cc3O)o2)S1 + Cc1cc([N+](=O)[O-])ccc1NS(=O)(=O)c1cc(Cl)ccc1Cl [FH535] (first compound 1 µM, partner dose 1 µM) | 131
16 | c1cc(-c2cnn3cc(-c4ccc(OCCN5CCCCC5)cc4)cnc23)ccn1 [Dorsomorphin] + CCCCCCCCCCCC1=C(O)C(=O)C=C(O)C1=O [Embelin] (first compound 0.4 µM, partner dose 1.2 µM) | 39.3

As a working copy, part of the list above.
Row | Structure (SMILES) | cleaved PARP positive nuclei fraction [%]
2 | O=C(O)c1ccc(-c2c[nH]c3ncc(-c4ccccc4)cc23)cc1C1CCCC1 + CN(NC(=O)CC(=O)NN(C)C(=S)c1ccccc1)C(=S)c1ccccc1 [STA4783] (first compound 0.16 µM, partner dose 0.006 µM) | 136
3 | CN(C)S(=O)(=O)c1ccc2c(c1)/C(=C/c1cc3c([nH]1)CCCC3)C(=O)N2 + CC(C)CCN1c2nc(Nc3cc(F)c(O)c(F)c3)ncc2N(C)C(=O)C1C [BID1870] (first compound 0.4 µM, partner dose 0.2 µM) | 110

Continuation.

Row | Structure (SMILES) | cleaved PARP positive nuclei fraction [%]
17 | COC(=O)c1sccc1S(=O)(=O)Nc1ccc(Nc2ccccc2)cc1OC + O=C(O)C(=O)Nc1sc2c(c1C(=O)O)CCNC2 [TCS401] (first compound 1 µM, partner dose 1.66667 µM) | 73
18 | O=C(Nc1ccccc1)c1cc([N+](=O)[O-])ccc1Cl + COc1ccc(-c2ccc3c(N4CCOCC4)nc(N4C[C@@H](C)O[C@@H](C)C4)nc3n2)cc1CO [KU0063794] (first compound 2 µM, partner dose 0.02 µM) | 66.2
19 | O=C(O)c1ccc(-c2c[nH]c3ncc(-c4ccccc4)cc23)cc1C1CCCC1 + COc1cc2c(Oc3ccc4[nH]c(C)cc4c3F)ncnc2cc1OCCCN1CCCC1 [cediranib] (first compound 0.16 µM, partner dose 0.4 µM) | 128
20 | CN(C)S(=O)(=O)c1ccc2c(c1)/C(=C/c1cc3c([nH]1)CCCC3)C(=O)N2 + CN(NC(=O)CC(=O)NN(C)C(=S)c1ccccc1)C(=S)c1ccccc1 [STA4783] (first compound 0.4 µM, partner dose 0.006 µM) | 179
21 | O=C(O)c1ccc(-c2c[nH]c3ncc(-c4ccccc4)cc23)cc1C1CCCC1 + NCC(=O)Nc1ccc(-n2nc(C(F)(F)F)cc2-c2ccc3c(ccc4ccccc43)c2)cc1 [OSU03012] (first compound 0.16 µM, partner dose 1 µM) | 235
22 | CN(C)S(=O)(=O)c1ccc2c(c1)/C(=C/c1cc3c([nH]1)CCCC3)C(=O)N2 + COc1cc2c(Oc3ccc4[nH]c(C)cc4c3F)ncnc2cc1OCCCN1CCCC1 [cediranib] (first compound 0.4 µM, partner dose 0.4 µM) | 125
23 | COC(=O)c1sccc1S(=O)(=O)Nc1ccc(Nc2ccccc2)cc1OC + Oc1cc(-c2nc(-c3ccccc3)[nH]c2-c2ccncc2)ccc1Cl [L779450] (first compound 1 µM, partner dose 0.2 µM) | 104
24 | O=C1NC(=O)/C(=C/c2ccc(-c3ccc(F)cc3O)o2)S1 + CCCCCCCCCCCC1=C(O)C(=O)C=C(O)C1=O [Embelin] (first compound 1 µM, partner dose 1.2 µM) | 160
25 | COc1cc(N2CCC(N3CCN(C)CC3)CC2)ccc1Nc1ncc(Cl)c(Nc2ccccc2S(=O)(=O)C(C)C)n1 + CC(C)CCN1c2nc(Nc3cc(F)c(O)c(F)c3)ncc2N(C)C(=O)C1C [BID1870] (first compound 0.08 µM, partner dose 0.2 µM) | 45.4
26 | CN(C)S(=O)(=O)c1ccc2c(c1)/C(=C/c1cc3c([nH]1)CCCC3)C(=O)N2 + O=C(O)c1ccc(-c2c[nH]c3ncc(-c4ccccc4)cc23)cc1C1CCCC1 [GSK650394] (first compound 0.4 µM, partner dose 0.16 µM) | 102
27 | COc1cc2ncnc(Nc3ccc(Oc4ccccc4)cc3)c2cc1OC + O=C1NC(=O)/C(=C/c2ccc(-c3ccc(F)cc3O)o2)S1 [AS252424] (first compound 2 µM, partner dose 1 µM) | 213
28 | CCN(CC)CCCCNc1ncc2cc(-c3cc(OC)cc(OC)c3)c(NC(=O)NC(C)(C)C)nc2n1 + COc1cc(N2CCC(N3CCN(C)CC3)CC2)ccc1Nc1ncc(Cl)c(Nc2ccccc2S(=O)(=O)C(C)C)n1 [NVP-TAE684] (first compound 0.1 µM, partner dose 0.08 µM) | 234
29 | O=C(Nc1ccccc1)c1cc([N+](=O)[O-])ccc1Cl + Cc1cc([N+](=O)[O-])ccc1NS(=O)(=O)c1cc(Cl)ccc1Cl [FH535] (first compound 2 µM, partner dose 1 µM) | 56.4
30 | COc1ccc(-c2ccc3c(N4CCOCC4)nc(N4C[C@@H](C)O[C@@H](C)C4)nc3n2)cc1CO + Cn1cc(/C=C2\C(=O)Nc3cccnc32)c2ccccc21 [GW441756] (first compound 0.02 µM, partner dose 0.4 µM) | 98.1
31 | COc1cc2c(Oc3ccc4[nH]c(C)cc4c3F)ncnc2cc1OCCCN1CCCC1 [cediranib] + O=c1cc(-c2cccc3c2Sc2ccccc2S3)oc(N2CCOCC2)c1 [KU55933] (first compound 0.4 µM, partner dose 1 µM) | 87.8
